Paper PMC11231159
No constants are given. Whether binding was seen depends on the method and setting. In cells and extracts the contact can be indirect. Some binding calls cover weakened binding; strength is not graded here.

Amino acid sequences for entries named in this document (tags omitted). A change or cut given only in a name is not applied to a line headed by its entry.
UniProt Q15796: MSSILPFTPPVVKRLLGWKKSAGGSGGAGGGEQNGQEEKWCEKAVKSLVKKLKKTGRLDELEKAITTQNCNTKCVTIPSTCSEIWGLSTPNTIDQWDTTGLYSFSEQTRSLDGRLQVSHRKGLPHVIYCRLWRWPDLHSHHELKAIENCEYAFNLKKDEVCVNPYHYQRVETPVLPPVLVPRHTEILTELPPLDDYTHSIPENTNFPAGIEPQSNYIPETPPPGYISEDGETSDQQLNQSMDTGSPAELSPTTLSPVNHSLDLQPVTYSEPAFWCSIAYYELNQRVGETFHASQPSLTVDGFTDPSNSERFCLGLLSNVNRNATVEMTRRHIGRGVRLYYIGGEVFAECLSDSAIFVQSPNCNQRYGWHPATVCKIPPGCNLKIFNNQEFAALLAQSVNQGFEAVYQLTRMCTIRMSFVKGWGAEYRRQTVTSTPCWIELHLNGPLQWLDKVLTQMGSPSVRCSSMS
UniProt P84022: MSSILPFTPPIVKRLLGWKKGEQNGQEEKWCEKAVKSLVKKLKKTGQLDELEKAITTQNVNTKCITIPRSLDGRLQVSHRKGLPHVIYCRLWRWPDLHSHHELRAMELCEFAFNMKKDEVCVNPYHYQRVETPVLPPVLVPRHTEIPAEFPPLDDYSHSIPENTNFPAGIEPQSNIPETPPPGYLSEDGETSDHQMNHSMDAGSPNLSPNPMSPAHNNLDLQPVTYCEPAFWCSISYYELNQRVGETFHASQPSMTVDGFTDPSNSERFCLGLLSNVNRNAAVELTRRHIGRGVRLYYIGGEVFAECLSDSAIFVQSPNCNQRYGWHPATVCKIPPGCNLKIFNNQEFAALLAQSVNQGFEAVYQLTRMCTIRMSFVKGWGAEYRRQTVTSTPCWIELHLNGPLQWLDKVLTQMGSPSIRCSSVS
UniProt Q04206: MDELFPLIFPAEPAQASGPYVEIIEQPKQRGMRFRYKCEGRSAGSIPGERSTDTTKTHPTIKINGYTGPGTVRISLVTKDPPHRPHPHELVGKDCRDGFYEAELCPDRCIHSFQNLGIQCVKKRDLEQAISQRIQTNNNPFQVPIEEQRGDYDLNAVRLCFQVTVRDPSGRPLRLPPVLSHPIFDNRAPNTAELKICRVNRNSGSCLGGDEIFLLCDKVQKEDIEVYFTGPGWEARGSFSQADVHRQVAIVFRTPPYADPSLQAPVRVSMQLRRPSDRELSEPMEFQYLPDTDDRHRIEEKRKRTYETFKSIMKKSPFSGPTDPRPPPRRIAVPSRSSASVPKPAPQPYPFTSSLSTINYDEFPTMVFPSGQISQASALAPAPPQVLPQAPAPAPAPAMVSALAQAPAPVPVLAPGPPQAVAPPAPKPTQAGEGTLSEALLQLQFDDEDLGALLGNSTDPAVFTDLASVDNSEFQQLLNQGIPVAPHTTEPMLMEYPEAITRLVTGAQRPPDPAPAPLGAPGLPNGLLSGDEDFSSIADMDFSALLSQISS

What was measured:
[1] = target: T1, SMAD2/3 (human (endogenous in CHLA-255 and SK-N-BE(2))) (UniProt Q15796+P84022); experiment: co-IP; lysates (RIPA buffer) of NB cells (CHLA-255, SK-N-BE(2)) co-cultured with MN and MSC (TME) or treated with 1500 pg/ml rTGF-β1 for 72 h; precipitated with anti-SMAD2/3 and Protein G beads, washed with IP buffer containing 0.5 M NaCl/0.1% SDS, blotted with anti-NF-κB p65
[2] = target: T1, SMAD2/3 (human (endogenous in CHLA-255 and SK-N-BE(2))); experiment: co-IP; cytosolic and nuclear fractions of NB cells (nuclear extraction kit) analysed by co-IP following the same protocol

binding [1]: binds | binding [2]: binds
Substance: NF-κB p65 (from UniProt Q04206 1-551)
